No constants are given. Whether binding was seen depends on the method and setting. In cells and extracts the contact can be indirect. Some binding calls cover weakened binding; strength is not graded here.
How the values were obtained:
[1] = biological target: ANP32A (human (endogenous in infected human lung epithelial cells)) (UniProt P39687)
[2] = biological target: ANP32B (human (endogenous in infected human lung epithelial cells)) (UniProt Q92688)
[3] = biological target: RAB11A (human (endogenous in infected human lung epithelial cells)) (UniProt P62491)
[4] = biological target: TDP-43 (TARDBP) (human (endogenous in infected human lung epithelial cells)) (UniProt Q13148)
[5] = biological target: T1, KHSRP (human (endogenous in infected human lung epithelial cells)) (UniProt Q92945)
T1 sequence: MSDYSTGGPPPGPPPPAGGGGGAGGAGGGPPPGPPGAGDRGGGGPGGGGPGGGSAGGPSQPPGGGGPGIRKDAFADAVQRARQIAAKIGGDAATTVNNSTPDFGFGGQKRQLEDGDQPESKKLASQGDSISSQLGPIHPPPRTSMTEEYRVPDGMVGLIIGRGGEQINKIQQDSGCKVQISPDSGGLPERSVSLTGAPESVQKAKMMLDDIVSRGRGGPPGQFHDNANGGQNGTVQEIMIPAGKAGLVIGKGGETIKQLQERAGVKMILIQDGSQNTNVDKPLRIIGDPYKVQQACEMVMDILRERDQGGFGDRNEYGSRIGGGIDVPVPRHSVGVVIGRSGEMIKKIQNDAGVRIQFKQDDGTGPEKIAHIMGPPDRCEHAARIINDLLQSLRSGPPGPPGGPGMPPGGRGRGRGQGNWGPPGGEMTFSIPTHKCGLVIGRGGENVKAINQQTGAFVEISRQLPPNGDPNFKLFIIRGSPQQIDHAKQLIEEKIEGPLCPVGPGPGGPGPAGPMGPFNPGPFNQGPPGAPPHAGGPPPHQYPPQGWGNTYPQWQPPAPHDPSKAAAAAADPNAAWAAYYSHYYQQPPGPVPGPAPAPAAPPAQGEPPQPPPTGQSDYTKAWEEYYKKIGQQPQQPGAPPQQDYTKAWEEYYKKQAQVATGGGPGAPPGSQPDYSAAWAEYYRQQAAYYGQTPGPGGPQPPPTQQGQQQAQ

Chains of the proteins cited; added tags and fusions are not shown.
UniProt P39687: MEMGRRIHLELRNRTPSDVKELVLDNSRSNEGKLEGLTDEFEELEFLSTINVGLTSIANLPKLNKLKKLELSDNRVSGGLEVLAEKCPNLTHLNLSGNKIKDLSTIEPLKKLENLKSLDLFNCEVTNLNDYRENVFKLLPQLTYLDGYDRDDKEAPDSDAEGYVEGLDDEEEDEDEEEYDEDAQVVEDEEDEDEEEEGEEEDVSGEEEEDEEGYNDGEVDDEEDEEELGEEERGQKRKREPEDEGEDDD
UniProt Q92688: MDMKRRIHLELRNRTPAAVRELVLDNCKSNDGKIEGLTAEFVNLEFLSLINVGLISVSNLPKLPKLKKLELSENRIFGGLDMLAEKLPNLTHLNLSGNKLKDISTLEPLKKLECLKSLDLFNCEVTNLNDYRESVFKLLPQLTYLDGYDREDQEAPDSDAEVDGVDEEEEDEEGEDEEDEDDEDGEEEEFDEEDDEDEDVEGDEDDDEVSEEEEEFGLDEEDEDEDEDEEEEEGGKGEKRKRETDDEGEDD
UniProt P62491: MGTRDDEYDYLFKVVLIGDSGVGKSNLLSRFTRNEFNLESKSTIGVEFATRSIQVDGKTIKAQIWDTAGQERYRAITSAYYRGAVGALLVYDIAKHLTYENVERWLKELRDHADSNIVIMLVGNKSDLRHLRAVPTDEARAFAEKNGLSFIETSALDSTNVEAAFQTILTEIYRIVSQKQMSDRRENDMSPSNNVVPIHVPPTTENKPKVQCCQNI
UniProt Q13148: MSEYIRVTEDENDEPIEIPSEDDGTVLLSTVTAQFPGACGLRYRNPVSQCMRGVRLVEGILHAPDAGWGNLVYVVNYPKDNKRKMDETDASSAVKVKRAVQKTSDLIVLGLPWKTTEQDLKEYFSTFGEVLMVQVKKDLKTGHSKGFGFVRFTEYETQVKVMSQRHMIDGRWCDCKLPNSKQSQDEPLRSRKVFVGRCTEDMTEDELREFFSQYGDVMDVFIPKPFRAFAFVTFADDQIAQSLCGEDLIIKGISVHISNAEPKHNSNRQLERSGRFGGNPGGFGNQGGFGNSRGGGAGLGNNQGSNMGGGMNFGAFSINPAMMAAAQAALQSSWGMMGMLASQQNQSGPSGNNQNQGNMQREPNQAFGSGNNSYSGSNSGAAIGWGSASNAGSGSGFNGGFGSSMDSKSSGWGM
UniProt P05777: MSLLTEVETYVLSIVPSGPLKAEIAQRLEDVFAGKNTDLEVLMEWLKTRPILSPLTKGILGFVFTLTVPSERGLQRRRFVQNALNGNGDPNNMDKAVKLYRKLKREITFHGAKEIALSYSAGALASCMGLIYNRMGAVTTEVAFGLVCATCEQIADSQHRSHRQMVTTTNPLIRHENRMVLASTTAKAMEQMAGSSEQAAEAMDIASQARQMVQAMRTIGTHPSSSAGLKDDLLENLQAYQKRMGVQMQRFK
UniProt P03427: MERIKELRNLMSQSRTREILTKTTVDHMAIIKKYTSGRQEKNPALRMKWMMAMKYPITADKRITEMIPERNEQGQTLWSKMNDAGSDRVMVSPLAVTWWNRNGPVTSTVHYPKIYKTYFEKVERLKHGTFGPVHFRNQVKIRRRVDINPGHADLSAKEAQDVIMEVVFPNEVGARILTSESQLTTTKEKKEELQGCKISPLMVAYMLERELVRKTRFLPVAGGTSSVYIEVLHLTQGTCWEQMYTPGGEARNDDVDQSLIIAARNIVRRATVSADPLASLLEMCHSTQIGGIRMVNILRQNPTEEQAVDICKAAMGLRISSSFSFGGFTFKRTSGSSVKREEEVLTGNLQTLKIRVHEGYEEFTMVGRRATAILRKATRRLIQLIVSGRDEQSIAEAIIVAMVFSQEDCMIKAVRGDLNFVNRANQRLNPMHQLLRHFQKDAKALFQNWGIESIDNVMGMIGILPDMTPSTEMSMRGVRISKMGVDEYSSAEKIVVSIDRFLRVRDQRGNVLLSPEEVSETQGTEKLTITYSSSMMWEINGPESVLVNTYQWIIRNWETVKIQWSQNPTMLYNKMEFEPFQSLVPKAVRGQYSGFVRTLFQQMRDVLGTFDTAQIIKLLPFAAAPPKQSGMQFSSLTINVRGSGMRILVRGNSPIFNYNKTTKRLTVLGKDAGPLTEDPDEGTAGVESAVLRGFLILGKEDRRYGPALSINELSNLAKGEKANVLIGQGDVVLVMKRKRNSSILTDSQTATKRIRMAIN
UniProt P15682: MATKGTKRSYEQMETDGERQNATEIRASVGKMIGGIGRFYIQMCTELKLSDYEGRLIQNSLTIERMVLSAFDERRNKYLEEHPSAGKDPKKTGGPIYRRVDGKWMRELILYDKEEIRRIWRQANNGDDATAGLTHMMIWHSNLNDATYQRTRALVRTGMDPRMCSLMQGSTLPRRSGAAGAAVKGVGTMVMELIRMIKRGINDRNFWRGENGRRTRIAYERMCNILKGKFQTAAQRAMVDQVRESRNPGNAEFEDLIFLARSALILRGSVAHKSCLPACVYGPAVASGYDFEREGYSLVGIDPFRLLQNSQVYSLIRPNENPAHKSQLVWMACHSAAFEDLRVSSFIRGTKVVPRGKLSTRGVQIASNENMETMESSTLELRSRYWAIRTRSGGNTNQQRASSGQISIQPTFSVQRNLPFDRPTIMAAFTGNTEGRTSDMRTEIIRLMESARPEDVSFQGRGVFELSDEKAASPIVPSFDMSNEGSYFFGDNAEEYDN

[6] = biological target: T2, NONO (paraspeckle core protein, DBHS family) (human (endogenous in A549)) (UniProt Q15233); assay: co-IP
T2 sequence: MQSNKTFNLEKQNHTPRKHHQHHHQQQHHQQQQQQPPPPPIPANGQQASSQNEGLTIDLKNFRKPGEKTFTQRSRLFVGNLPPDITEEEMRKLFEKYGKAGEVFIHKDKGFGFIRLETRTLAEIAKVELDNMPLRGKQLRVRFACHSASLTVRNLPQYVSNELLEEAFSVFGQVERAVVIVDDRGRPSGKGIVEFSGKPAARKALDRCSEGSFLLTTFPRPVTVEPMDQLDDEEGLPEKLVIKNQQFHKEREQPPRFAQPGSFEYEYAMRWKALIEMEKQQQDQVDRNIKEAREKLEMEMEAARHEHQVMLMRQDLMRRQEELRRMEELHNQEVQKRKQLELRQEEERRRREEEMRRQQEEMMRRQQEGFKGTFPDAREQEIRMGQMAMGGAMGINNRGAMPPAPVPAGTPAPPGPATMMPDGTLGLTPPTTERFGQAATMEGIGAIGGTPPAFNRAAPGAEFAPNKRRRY

[7] = biological target: T3, SFPQ (paraspeckle core protein, DBHS family) (human (endogenous in A549)) (UniProt P23246); assay: co-IP
T3 sequence: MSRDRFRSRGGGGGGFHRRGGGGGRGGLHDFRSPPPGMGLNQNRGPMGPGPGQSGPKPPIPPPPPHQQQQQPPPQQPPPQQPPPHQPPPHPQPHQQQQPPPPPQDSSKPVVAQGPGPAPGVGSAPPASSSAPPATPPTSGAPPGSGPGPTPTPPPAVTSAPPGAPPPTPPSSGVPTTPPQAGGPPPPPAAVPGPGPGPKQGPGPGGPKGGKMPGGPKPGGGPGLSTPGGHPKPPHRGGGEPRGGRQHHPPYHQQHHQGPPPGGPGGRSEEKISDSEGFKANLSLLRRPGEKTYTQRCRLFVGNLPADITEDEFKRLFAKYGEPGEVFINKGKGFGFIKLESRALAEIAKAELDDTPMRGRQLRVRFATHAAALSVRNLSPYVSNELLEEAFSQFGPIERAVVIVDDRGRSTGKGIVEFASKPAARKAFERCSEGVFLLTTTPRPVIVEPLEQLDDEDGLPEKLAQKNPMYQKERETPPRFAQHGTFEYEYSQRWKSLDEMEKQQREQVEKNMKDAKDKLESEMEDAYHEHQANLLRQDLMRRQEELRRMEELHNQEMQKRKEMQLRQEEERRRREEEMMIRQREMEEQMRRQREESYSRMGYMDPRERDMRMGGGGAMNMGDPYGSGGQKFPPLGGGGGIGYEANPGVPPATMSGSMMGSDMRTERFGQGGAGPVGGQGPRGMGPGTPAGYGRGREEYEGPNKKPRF

**Q.** For “M1 (influenza A virus matrix protein 1) (from UniProt P05777 1-252)”, which binding [1] is on record?
**A.** binds

**Q.** And the binding [2]?
**A.** binds

**Q.** With “PB2 (influenza A virus RNA-dependent RNA polymerase subunit) (from UniProt P03427 1-759)” as the substance, how does the binding [3] read?
**A.** binds

**Q.** Which results are given for “NP (influenza A virus nucleoprotein) (from UniProt P15682 1-498)”?
**A.** binding [4]: binds; binding [5]: binds; binding [6]: binds; binding [7]: binds

— publication doi:10.1101/2025.03.09.642134
